Binding signal data for 42 sequences are collected here from PMC7819943, “Rice protein-binding microarrays: a tool to detect cis-acting elements near promoter regions in rice”.

Amino acid sequences for entries named in this document (tags omitted).
UniProt Q0JBA9, entry or part of it: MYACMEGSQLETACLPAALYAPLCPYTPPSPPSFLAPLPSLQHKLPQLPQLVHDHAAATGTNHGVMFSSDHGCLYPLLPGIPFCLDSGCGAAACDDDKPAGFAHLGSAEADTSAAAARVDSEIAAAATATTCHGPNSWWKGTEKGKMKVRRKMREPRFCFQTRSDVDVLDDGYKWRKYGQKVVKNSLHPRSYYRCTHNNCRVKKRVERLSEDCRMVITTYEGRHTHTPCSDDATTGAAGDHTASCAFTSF

Some of the results follow.

This test has as its target OsWRKY34 (Oryza sativa, UniProt Q0JBA9 1-250). The experiment in a line: protein-binding microarray (RPBM); PBS, 2% BSA, 51.3 ng/ul salmon testes DNA, 50 uM zinc acetate, 200 nM TF, 25 C, 1 h; high values mean tight binding. Conditions: protein: recombinant; tags: N-terminal polyhistidine and DsRed monomer fusion (pET32a); label: CyDye5-dUTP incorporated in the synthesized complementary strand; 3' TTTTT single-stranded linker to array surface; dsDNA, one strand shown. In a few lines: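 Ni–NTA purification followed expression in E. coli BL21-CodonPlus of transcription factors fused N-terminally to a polyhistidine tag and DsRed. At 200 nM in PBS with 2% BSA, salmon testes DNA and 50 µM zinc acetate, the protein was incubated for 1 h at 25 °C with a custom Agilent array that had been primer-extended with Cy5-dUTP and blocked with 2% BSA. After washing, the array was read on an Axon 4000B scanner. The binding signal is per-feature fluorescence intensity in arbitrary units.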
Regarding “ATGATGCCGTTGACTTTTTGAACAACGTTTGACTATTCGTCGGAGTCACCTAGTGCAG”, the binding signal was 32600 fluorescence intensity (a.u.). Regarding “TCGGCAGAGCTTGCCAAGACGACCTACGTCACCACCTTGCCGGAGTCACCTAGTGCAG”, the binding signal is 8380 fluorescence intensity (a.u.).

As for “ACACAAAATGCACACCATGTCCACCATATCTCCTTACACGCGGAGTCACCTAGTGCAG”, the binding signal is 11200 fluorescence intensity (a.u.). With “GGGATTTATTGTTGCCTCATTTATTTTTAGGAATTTTCTTCGGAGTCACCTAGTGCAG”, the binding signal is 9920 fluorescence intensity (a.u.). On to “ACTTGGTAAGTATATGCTTGTCGTTTTCAGATCGCCTCACCGGAGTCACCTAGTGCAG”, for which the binding signal was 8920 fluorescence intensity (a.u.). For “CACCATTTTCCACATACTCTGCCTAGACGCCGACAAGTGACGGAGTCACCTAGTGCAG”, the binding signal is 8580 fluorescence intensity (a.u.). For “GGGCTCACAGACCTCTCTCCATCTCTCTTGCTGTGAGGATCGGAGTCACCTAGTGCAG” the value was 9240 fluorescence intensity (a.u.); for “ATTACCCGTGATACTCACTCACTCATCCCAGATCATTCCACGGAGTCACCTAGTGCAG”, 10800 fluorescence intensity (a.u.); for “CTTATGTGTAATGTAATCAAGGTGCCATCTTTGTTTTTTTCGGAGTCACCTAGTGCAG”, 11800 fluorescence intensity (a.u.). As to “CGCCAGCCCTTTTTCTAACTCGATTTTCACAGGAGTTTTTCGGAGTCACCTAGTGCAG”, the binding signal is 8560 fluorescence intensity (a.u.).

On to “GCCGCCACCGCCACCTCACAGTCTCACACTGCCATTGCCGCGGAGTCACCTAGTGCAG”, for which the binding signal is 9180 fluorescence intensity (a.u.). For the sequence “TACTTGCAACCGTCCTAACTATATTACGTACATGGTACCACGGAGTCACCTAGTGCAG”, the binding signal was 8790 fluorescence intensity (a.u.). For “GAATTTTTTTTGTTAAAGATGTTCATGGTATATTGTCTCGCGGAGTCACCTAGTGCAG” the value was 8490 fluorescence intensity (a.u.); for “ACTCGTCGACACTTATACATTTGCATAAACTTTCTAAATTCGGAGTCACCTAGTGCAG”, 9820 fluorescence intensity (a.u.); for “TAAGAGTTTTTTCTTTTTCAAGGATTATCCTTTCTCATCTCGGAGTCACCTAGTGCAG”, 9150 fluorescence intensity (a.u.). Under “TTCTTGGCAGCCAAGTTGATGCTTTTGGACAGGGTTGACTCGGAGTCACCTAGTGCAG” stands 8960 fluorescence intensity (a.u.); under “CCACCATCCTGACCAGCTGCCAGCTATCATTTTCTGGATACGGAGTCACCTAGTGCAG”, 9070 fluorescence intensity (a.u.); under “AGCCATATTCTAATTCTTCTTTCTTTCTCTTTTTTTTTTTCGGAGTCACCTAGTGCAG”, 9470 fluorescence intensity (a.u.). For “CGCCTCCACTACCGCCTGTCCCTTTCGTCCACCACCAGTCCGGAGTCACCTAGTGCAG” the value was 12200 fluorescence intensity (a.u.); for “GTGCACTTACATGCCATATCTACTATTTTTACAACTGTAACGGAGTCACCTAGTGCAG”, 8590 fluorescence intensity (a.u.).

Consider “TAAAGGCCCTTGTCCTTCCGCGTGTTGCAAGTTTTTAATACGGAGTCACCTAGTGCAG”, for which the binding signal was 8210 fluorescence intensity (a.u.).

For “TATTTTAAGATATTTTCAACGTGGTATCTTTTTCAGCGTTCGGAGTCACCTAGTGCAG”, the binding signal was 8600 fluorescence intensity (a.u.).

Take “CGCCACATCCGCCGTTCCCCACGACCACGACCACCGCCGCCGGAGTCACCTAGTGCAG”: the binding signal is 8520 fluorescence intensity (a.u.). Consider “GTCGCCTTGCGCCTGCCATTATCCAGGTTCTTGCCTCTTCCGGAGTCACCTAGTGCAG”, for which the binding signal is 9530 fluorescence intensity (a.u.). As to “TCCTTGTGCCCACTTCTAGCTAGCTTCCAAGTTCCAACCACGGAGTCACCTAGTGCAG”, the binding signal is 13700 fluorescence intensity (a.u.).

Turning to “TATTACTCTTAGTCTGGTGGTATATATGCAGAAAGATATTCGGAGTCACCTAGTGCAG”, the binding signal is 12400 fluorescence intensity (a.u.). On to “TAAACTTCAACTTATTCGGTATTCGTTTTTTGTTAGTACGCGGAGTCACCTAGTGCAG”, for which the binding signal was 9860 fluorescence intensity (a.u.). “CTCCGTTTTCACCCCTATGTATAGTTTATATGTAAATTGCCGGAGTCACCTAGTGCAG”: the binding signal is 8830 fluorescence intensity (a.u.). As to “CTTCTGTTTCTGTAATCGTGTTGAAAAACCAGCATCTCATCGGAGTCACCTAGTGCAG”, the binding signal is 8240 fluorescence intensity (a.u.). For “CTTCAACTTTCTTGTTTTTCAAACTGTGGTGTGTTTTTGACGGAGTCACCTAGTGCAG” the value was 10500 fluorescence intensity (a.u.); for “TCTTCTTCTTGTTTCGGCTTCCGCCTCCGTCCCGCGCGCGCGGAGTCACCTAGTGCAG”, 13800 fluorescence intensity (a.u.). For “CCACACAATCAACGCCATGATTACATTGCACTTGTCGTATCGGAGTCACCTAGTGCAG” the value was 8390 fluorescence intensity (a.u.). Consider “CATTGATCTGAATACATACTGCTTTCTATGACCTTATCATCGGAGTCACCTAGTGCAG”, for which the binding signal is 8960 fluorescence intensity (a.u.). As for “CACTAGTTGTTTTGAGTTTTTGTTTGATCCTTCTTCATTTCGGAGTCACCTAGTGCAG”, the binding signal is 8470 fluorescence intensity (a.u.). Regarding “ATTTCACCCTTATTTTGCTGCGCGTATACGTTTGAATTCTCGGAGTCACCTAGTGCAG”, the binding signal was 11500 fluorescence intensity (a.u.). Under “TGCCCCAACAGTAGTGTCCTTTGCCTTGTATTCTCCTCTCCGGAGTCACCTAGTGCAG” stands 8500 fluorescence intensity (a.u.); under “GAGAGAGGATTTTTAGGGTTTAGTTGTCTGCACGAATCTTCGGAGTCACCTAGTGCAG”, 8690 fluorescence intensity (a.u.); under “ATTCACACCCACACCAAGCACCAACCAAACCTTGCCCTATCGGAGTCACCTAGTGCAG”, 8290 fluorescence intensity (a.u.). Take “GCTGTTTCTCCCTGCCTTGGATGCTTTTATCTATTGATGTCGGAGTCACCTAGTGCAG”: the binding signal was 12200 fluorescence intensity (a.u.).

Take “AGTATAATGGTGGGTGGTATTTCATTTGGATCTTTGAACCCGGAGTCACCTAGTGCAG”: the binding signal is 8850 fluorescence intensity (a.u.). Turning to “TCGTCGCCTCCGCCTCCGCCCACAAACCACATTTTTTCTTCGGAGTCACCTAGTGCAG”, the binding signal is 15300 fluorescence intensity (a.u.). In the case of “GATTTCAGAAGGCGATTTTTGGTTCTTTAGTTCAGAGTTCCGGAGTCACCTAGTGCAG”, the binding signal was 8550 fluorescence intensity (a.u.).
